# In the supplement of paper PMC6411743:
# Amino acid sequences for entries named in this document (tags omitted). A change or cut given only in a name is not applied to a line headed by its entry.
# UniProt P53701: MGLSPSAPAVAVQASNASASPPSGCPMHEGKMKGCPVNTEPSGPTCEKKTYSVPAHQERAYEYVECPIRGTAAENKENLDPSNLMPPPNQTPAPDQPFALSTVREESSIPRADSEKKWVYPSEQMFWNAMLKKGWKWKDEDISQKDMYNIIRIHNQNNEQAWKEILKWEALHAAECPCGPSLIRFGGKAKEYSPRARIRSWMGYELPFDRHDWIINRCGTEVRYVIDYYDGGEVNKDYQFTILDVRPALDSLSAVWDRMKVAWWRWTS
# UniProt P61018: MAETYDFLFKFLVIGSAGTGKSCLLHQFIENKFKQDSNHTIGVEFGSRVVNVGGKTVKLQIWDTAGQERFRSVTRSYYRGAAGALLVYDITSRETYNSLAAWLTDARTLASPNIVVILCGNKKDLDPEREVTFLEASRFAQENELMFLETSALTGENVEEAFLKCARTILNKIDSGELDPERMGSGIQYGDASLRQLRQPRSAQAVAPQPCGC
# UniProt P61289: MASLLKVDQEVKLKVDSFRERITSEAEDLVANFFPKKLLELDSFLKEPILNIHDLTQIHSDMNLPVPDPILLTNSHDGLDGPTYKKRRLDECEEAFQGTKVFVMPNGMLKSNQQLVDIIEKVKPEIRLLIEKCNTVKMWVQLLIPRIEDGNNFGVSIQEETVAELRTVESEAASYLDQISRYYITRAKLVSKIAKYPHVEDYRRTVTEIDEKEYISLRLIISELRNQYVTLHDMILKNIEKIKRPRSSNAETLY
# UniProt P51858: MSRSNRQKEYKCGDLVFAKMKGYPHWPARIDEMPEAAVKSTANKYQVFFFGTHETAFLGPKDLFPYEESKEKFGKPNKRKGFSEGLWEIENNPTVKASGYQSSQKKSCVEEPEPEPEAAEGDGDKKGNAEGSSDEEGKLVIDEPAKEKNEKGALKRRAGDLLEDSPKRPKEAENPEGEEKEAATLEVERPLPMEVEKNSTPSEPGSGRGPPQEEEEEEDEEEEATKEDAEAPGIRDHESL
# UniProt P55263: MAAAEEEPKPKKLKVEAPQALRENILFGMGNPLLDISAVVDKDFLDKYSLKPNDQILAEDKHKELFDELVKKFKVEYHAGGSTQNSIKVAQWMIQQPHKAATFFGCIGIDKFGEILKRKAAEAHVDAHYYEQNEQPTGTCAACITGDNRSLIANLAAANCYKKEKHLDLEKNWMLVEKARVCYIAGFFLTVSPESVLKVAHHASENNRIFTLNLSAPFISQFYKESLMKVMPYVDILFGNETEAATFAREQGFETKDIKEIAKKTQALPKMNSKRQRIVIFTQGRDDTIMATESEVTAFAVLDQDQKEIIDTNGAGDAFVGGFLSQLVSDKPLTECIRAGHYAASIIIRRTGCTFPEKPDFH
# UniProt P78417: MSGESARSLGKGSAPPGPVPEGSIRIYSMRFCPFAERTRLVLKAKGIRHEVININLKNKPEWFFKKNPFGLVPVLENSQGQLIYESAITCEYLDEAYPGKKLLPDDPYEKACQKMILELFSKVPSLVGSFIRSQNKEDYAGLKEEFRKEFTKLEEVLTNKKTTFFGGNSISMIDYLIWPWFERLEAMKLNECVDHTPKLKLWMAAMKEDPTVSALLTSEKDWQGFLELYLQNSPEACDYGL
# UniProt P83916, whole entry, looked up: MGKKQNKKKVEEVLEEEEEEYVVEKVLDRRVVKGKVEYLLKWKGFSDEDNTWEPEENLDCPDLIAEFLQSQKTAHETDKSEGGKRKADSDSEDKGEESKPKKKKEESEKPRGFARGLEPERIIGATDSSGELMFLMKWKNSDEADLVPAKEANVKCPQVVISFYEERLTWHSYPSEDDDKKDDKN
# UniProt P52948: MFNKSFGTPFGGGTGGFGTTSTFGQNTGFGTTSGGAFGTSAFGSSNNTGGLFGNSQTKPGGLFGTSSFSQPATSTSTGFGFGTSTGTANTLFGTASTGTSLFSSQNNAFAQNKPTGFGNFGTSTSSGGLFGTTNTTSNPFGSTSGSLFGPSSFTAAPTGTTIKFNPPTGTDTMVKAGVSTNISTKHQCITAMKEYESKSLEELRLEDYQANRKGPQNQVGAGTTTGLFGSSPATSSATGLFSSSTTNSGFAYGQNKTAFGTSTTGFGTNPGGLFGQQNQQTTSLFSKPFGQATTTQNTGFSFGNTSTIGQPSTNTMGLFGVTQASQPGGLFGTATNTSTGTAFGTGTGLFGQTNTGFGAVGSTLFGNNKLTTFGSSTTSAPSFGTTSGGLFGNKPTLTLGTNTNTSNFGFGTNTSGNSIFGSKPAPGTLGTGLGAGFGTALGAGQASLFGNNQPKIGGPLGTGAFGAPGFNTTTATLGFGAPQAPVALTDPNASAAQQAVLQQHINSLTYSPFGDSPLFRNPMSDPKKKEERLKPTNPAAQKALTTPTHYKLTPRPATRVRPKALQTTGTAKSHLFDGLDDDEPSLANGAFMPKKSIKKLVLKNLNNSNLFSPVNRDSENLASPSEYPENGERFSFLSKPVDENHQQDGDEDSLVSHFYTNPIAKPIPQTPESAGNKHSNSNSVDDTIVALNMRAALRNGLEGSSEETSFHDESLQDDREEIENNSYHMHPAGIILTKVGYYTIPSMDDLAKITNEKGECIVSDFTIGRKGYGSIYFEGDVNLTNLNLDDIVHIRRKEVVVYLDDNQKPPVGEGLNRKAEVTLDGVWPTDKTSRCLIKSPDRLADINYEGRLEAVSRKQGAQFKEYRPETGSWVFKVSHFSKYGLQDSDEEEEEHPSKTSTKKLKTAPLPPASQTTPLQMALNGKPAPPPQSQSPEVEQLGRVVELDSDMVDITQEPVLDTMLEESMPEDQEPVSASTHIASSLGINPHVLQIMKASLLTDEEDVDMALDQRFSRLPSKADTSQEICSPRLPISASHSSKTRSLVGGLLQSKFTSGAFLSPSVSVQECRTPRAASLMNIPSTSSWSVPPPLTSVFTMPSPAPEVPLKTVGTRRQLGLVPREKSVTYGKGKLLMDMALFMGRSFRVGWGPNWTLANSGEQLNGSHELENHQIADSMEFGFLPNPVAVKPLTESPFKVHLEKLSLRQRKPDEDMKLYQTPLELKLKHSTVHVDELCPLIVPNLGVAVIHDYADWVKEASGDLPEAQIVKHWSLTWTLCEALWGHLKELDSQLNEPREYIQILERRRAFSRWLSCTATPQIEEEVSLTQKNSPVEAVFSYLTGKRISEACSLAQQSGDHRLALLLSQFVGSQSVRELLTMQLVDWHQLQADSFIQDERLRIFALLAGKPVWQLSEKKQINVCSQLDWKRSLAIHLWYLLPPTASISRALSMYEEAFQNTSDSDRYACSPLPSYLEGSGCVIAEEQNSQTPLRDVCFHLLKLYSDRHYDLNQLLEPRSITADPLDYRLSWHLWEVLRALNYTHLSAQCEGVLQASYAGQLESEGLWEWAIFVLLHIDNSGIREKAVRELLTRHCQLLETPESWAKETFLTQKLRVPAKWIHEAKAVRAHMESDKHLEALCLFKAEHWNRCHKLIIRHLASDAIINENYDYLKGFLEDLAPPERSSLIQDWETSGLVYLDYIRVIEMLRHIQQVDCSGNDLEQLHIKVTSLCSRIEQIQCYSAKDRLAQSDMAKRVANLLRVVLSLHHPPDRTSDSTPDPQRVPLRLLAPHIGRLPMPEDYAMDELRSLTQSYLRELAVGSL
# UniProt P53634: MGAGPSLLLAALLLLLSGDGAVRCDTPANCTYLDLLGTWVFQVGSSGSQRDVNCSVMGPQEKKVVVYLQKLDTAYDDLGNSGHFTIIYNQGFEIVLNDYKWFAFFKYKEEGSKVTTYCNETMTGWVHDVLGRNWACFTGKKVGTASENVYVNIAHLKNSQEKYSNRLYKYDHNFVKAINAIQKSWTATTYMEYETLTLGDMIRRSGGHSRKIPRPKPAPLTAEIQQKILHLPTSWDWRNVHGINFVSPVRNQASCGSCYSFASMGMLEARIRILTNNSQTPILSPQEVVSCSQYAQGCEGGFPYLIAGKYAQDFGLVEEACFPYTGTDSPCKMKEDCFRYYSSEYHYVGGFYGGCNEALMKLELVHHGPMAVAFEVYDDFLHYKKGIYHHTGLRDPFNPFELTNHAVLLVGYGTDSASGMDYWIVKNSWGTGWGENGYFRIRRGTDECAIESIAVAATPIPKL
# UniProt P56962: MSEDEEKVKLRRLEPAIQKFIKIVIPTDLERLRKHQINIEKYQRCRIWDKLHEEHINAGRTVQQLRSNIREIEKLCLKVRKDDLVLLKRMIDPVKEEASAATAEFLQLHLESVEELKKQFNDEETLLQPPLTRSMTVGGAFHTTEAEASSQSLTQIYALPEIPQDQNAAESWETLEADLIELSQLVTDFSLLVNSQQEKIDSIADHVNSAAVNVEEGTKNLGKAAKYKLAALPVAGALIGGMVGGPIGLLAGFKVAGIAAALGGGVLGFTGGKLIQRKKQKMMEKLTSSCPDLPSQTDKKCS
# UniProt P60520, whole entry: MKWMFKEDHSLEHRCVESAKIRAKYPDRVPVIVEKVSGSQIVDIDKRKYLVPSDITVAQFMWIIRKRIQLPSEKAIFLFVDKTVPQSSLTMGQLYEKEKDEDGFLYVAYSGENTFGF
# UniProt P61081: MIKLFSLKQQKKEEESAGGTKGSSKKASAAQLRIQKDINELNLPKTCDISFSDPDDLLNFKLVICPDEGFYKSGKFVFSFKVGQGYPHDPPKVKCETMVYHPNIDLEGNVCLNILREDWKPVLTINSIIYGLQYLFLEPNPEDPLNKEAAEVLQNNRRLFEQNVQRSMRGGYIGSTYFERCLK
# UniProt P50995, whole entry: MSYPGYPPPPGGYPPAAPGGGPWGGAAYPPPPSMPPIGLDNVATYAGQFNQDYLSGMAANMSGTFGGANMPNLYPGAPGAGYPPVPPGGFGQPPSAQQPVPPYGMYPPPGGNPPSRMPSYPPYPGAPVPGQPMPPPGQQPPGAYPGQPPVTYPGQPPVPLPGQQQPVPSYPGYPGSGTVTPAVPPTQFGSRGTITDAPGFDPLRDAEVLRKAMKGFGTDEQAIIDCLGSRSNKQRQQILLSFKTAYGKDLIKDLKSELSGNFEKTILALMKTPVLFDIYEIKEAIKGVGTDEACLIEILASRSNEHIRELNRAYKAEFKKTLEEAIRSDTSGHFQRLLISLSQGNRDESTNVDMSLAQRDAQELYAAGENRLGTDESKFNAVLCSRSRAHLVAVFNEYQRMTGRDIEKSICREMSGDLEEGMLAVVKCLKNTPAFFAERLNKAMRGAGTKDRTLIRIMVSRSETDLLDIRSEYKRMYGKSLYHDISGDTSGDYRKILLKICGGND
# UniProt P50750, whole entry: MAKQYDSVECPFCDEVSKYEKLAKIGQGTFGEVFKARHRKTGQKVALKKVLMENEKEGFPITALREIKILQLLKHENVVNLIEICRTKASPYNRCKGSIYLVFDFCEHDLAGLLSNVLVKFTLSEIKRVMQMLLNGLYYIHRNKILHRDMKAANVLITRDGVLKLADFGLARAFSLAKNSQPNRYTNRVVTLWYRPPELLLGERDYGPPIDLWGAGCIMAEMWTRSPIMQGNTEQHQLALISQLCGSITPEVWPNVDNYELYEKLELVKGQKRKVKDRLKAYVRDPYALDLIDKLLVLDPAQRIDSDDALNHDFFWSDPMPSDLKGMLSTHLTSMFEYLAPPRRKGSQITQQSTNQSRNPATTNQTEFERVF
# UniProt P78318: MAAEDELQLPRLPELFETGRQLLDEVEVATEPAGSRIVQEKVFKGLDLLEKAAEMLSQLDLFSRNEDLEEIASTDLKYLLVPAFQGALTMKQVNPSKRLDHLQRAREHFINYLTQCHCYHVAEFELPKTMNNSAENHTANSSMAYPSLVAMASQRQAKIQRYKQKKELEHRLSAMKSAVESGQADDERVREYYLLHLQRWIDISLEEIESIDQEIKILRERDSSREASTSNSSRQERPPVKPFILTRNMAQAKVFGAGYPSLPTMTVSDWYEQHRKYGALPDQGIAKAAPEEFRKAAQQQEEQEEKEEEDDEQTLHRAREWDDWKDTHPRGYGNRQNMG
# UniProt P62136, whole entry: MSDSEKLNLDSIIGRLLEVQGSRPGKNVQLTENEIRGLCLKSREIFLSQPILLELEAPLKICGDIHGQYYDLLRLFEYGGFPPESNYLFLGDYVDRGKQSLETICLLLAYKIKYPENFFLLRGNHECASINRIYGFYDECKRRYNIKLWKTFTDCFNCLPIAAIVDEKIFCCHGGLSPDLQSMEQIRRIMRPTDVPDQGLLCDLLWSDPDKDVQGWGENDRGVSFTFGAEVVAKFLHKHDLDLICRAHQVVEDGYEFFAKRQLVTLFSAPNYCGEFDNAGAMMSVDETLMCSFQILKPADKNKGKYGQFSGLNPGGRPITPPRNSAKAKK
# UniProt P62072: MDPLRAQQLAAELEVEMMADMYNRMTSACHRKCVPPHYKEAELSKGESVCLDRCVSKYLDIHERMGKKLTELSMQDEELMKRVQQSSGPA
# UniProt Q00169: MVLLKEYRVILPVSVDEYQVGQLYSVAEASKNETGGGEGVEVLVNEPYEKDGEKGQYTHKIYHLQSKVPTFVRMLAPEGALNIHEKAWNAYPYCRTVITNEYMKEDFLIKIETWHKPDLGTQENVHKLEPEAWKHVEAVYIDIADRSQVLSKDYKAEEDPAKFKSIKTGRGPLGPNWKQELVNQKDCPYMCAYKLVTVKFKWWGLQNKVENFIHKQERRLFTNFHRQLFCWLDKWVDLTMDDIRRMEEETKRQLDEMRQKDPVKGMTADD
# ± gives the standard deviation of the averaged measurements. The list shows a part of the results.
# Compound: Nc1nc2c(ncn2[C@@H]2O[C@H](COP(=O)(O)OP(=O)(O)OP(=O)(O)O)[C@@H](O)[C@H]2O)c(=O)[nH]1 [guanosine triphosphate]
# Assay: NP40-soluble protein abundance relative to vehicle (solubility fold change) (ratio); higher = more soluble protein in presence of GTP
# Outline: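 Eight concentrations, 0.1 to 10 mM, were tested on Jurkat crude lysate for 10 min at room temperature and then 3 min at 37 °C, in three independent experiments. The lysate was solubilised with 0.8% NP40 and benzonase, ultracentrifuged, and the supernatant TMT-labelled for LC-MS/MS. Each value is the fold change against the detergent-processed vehicle in its own replicate, from vsn-normalised intensities.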
Target,NP40-soluble protein abundance (concentration: 0.1mM),NP40-soluble protein abundance (concentration: 0.5mM),NP40-soluble protein abundance (concentration: 1mM),NP40-soluble protein abundance (concentration: 2mM),NP40-soluble protein abundance (concentration: 4mM),NP40-soluble protein abundance (concentration: 6mM),NP40-soluble protein abundance (concentration: 8mM),NP40-soluble protein abundance (concentration: 10mM)
HCCS (UniProt P53701),1.02 ± 0.096,1.04 ± 0.074,0.979 ± 0.12,0.947 ± 0.078,0.894 ± 0.11,0.907 ± 0.11,0.897 ± 0.12,0.877 ± 0.094
UniProt P61018 and related entries,1.07 ± 0.098,1.07 ± 0.043,0.976 ± 0.058,0.975 ± 0.063,0.942 ± 0.058,0.951 ± 0.054,0.889 ± 0.074,0.881 ± 0.1
UniProt P61289 and related entries,0.9 ± 0.067,0.772 ± 0.16,1.16 ± 0.29,0.755 ± 0.37,1.14 ± 0.32,0.735 ± 0.34,0.846 ± 0.08,0.7 ± 0.34
UniProt P61764 and related entries,1.04 ± 0.043,1.05 ± 0.077,0.974 ± 0.042,0.961 ± 0.061,0.939 ± 0.076,0.917 ± 0.057,0.938 ± 0.043,0.906 ± 0.069
EIF6 (UniProt P56537),1.05 ± 0.023,1.03 ± 0.034,0.995 ± 0.027,1.02 ± 0.035,1.05 ± 0.031,0.955 ± 0.034,0.956 ± 0.035,0.95 ± 0.049
HDGF (UniProt P51858),0.863 ± 0.067,0.898 ± 0.086,0.914 ± 0.058,0.861 ± 0.11,0.817 ± 0.088,0.886 ± 0.11,0.911 ± 0.057,0.913 ± 0.055
UniProt P62851,0.853 ± 0.11,0.926 ± 0.095,1.12 ± 0.18,1.14 ± 0.24,1.08 ± 0.38,1.05 ± 0.28,0.578 ± 0.13,1.33 ± 0.44
UniProt P52306 and related entries,0.996 ± 0.017,0.983 ± 0.02,0.916 ± 0.014,0.914 ± 0.043,0.882 ± 0.045,0.897 ± 0.02,0.889 ± 0.022,0.874 ± 0.035
UniProt P55263 and related entries,0.987 ± 0.015,0.948 ± 0.02,0.927 ± 0.041,0.882 ± 0.043,0.861 ± 0.052,0.882 ± 0.047,0.866 ± 0.068,0.797 ± 0.08
GSTO1 (UniProt P78417),0.917 ± 0.02,0.936 ± 0.018,0.892 ± 0.022,0.884 ± 0.037,0.846 ± 0.033,0.853 ± 0.046,0.802 ± 0.078,0.817 ± 0.073
UniProt P61254,1.031 ± 0.0044,1.05 ± 0.054,1.02 ± 0.068,0.855 ± 0.096,0.892 ± 0.19,0.899 ± 0.14,0.783 ± 0.23,0.933 ± 0.29
UniProt P83916 and related entries,0.896 ± 0.021,0.925 ± 0.015,1 ± 0.035,1.01 ± 0.022,0.962 ± 0.04,1.01 ± 0.031,1.032 ± 0.0036,1.09 ± 0.06
UniProt P52948 and related entries,1.01 ± 0.035,1.03 ± 0.035,1.07 ± 0.033,1.1 ± 0.039,1.2 ± 0.02,1.26 ± 0.033,1.35 ± 0.03,1.438 ± 0.011
UniProt P60866 and related entries,1.01 ± 0.073,1.03 ± 0.096,1.05 ± 0.19,0.983 ± 0.2,0.879 ± 0.27,0.845 ± 0.26,0.728 ± 0.21,0.812 ± 0.25
UniProt P55072,0.982 ± 0.03,1.05 ± 0.064,0.999 ± 0.073,1.02 ± 0.12,1.03 ± 0.11,1.03 ± 0.14,1 ± 0.1,1 ± 0.11
CTSC (UniProt P53634),0.983 ± 0.0099,1.01 ± 0.03,0.986 ± 0.056,0.99 ± 0.02,1.02 ± 0.034,0.981 ± 0.034,0.972 ± 0.017,0.986 ± 0.044
UniProt P62805,0.891 ± 0.063,0.855 ± 0.058,0.972 ± 0.027,0.963 ± 0.053,1.08 ± 0.048,1.22 ± 0.054,1.2 ± 0.067,1.76 ± 0.14
STX17 (UniProt P56962),0.962 ± 0.032,0.938 ± 0.047,0.983 ± 0.042,0.979 ± 0.1,0.942 ± 0.11,0.942 ± 0.06,0.95 ± 0.063,0.967 ± 0.095
GRB2 (UniProt P62993),0.986 ± 0.05,0.973 ± 0.045,0.95 ± 0.058,0.896 ± 0.054,0.898 ± 0.08,0.904 ± 0.06,0.899 ± 0.1,0.873 ± 0.082
UniProt P61927 and related entries,0.971 ± 0.068,0.983 ± 0.087,1.08 ± 0.16,1.03 ± 0.18,1.03 ± 0.2,1.02 ± 0.22,0.831 ± 0.2,1.15 ± 0.28
UniProt P78527,1.14 ± 0.1,1.22 ± 0.19,1.12 ± 0.16,1.21 ± 0.26,1.23 ± 0.24,1.21 ± 0.24,1.17 ± 0.19,1.1 ± 0.19
UniProt P60520,0.9927 ± 0.0026,1.01 ± 0.02,0.906 ± 0.023,0.895 ± 0.072,0.856 ± 0.048,0.892 ± 0.056,0.852 ± 0.052,0.863 ± 0.073
UniProt P61081,0.968 ± 0.033,0.963 ± 0.017,0.929 ± 0.043,0.879 ± 0.049,0.87 ± 0.06,0.884 ± 0.067,0.884 ± 0.046,0.861 ± 0.058
UniProt P50995 and related entries,0.929 ± 0.08,0.876 ± 0.092,0.957 ± 0.091,0.896 ± 0.12,0.914 ± 0.098,0.893 ± 0.1,0.89 ± 0.087,0.9 ± 0.097
UniProt P62857,0.827 ± 0.046,0.7927 ± 0.0065,0.972 ± 0.1,0.93 ± 0.1,0.806 ± 0.15,0.746 ± 0.14,0.61 ± 0.093,0.735 ± 0.17
UniProt P50750 and related entries,1.07 ± 0.027,1.11 ± 0.069,1.07 ± 0.039,1.2 ± 0.1,1.35 ± 0.11,1.4 ± 0.11,1.47 ± 0.06,1.54 ± 0.097
IGBP1 (UniProt P78318),0.923 ± 0.058,0.856 ± 0.039,1.05 ± 0.16,1.03 ± 0.07,1.01 ± 0.11,1.01 ± 0.074,0.989 ± 0.16,1.09 ± 0.19
PPP1CA (UniProt P62136),0.894 ± 0.12,0.92 ± 0.12,0.861 ± 0.081,0.834 ± 0.072,0.855 ± 0.083,0.853 ± 0.056,0.837 ± 0.098,0.828 ± 0.092
UniProt P62072,0.991 ± 0.067,0.963 ± 0.1,1.06 ± 0.086,1.03 ± 0.15,1.01 ± 0.071,1.04 ± 0.16,1.09 ± 0.076,1.16 ± 0.037
UniProt Q00169 and related entries,0.968 ± 0.036,0.967 ± 0.046,0.904 ± 0.013,0.911 ± 0.023,0.888 ± 0.04,0.884 ± 0.037,0.833 ± 0.046,0.851 ± 0.064

# Another view of part of the listing above.
Target	NP40-soluble protein abundance (concentration: 0.1mM)	NP40-soluble protein abundance (concentration: 0.5mM)	NP40-soluble protein abundance (concentration: 1mM)	NP40-soluble protein abundance (concentration: 2mM)	NP40-soluble protein abundance (concentration: 4mM)	NP40-soluble protein abundance (concentration: 6mM)	NP40-soluble protein abundance (concentration: 8mM)	NP40-soluble protein abundance (concentration: 10mM)
HCCS (UniProt P53701)	1.02 ± 0.096	1.04 ± 0.074	0.979 ± 0.12	0.947 ± 0.078	0.894 ± 0.11	0.907 ± 0.11	0.897 ± 0.12	0.877 ± 0.094
UniProt P61289 and related entries	0.9 ± 0.067	0.772 ± 0.16	1.16 ± 0.29	0.755 ± 0.37	1.14 ± 0.32	0.735 ± 0.34	0.846 ± 0.08	0.7 ± 0.34
UniProt P52306 and related entries	0.996 ± 0.017	0.983 ± 0.02	0.916 ± 0.014	0.914 ± 0.043	0.882 ± 0.045	0.897 ± 0.02	0.889 ± 0.022	0.874 ± 0.035
CTSC (UniProt P53634)	0.983 ± 0.0099	1.01 ± 0.03	0.986 ± 0.056	0.99 ± 0.02	1.02 ± 0.034	0.981 ± 0.034	0.972 ± 0.017	0.986 ± 0.044
STX17 (UniProt P56962)	0.962 ± 0.032	0.938 ± 0.047	0.983 ± 0.042	0.979 ± 0.1	0.942 ± 0.11	0.942 ± 0.06	0.95 ± 0.063	0.967 ± 0.095
UniProt P61081	0.968 ± 0.033	0.963 ± 0.017	0.929 ± 0.043	0.879 ± 0.049	0.87 ± 0.06	0.884 ± 0.067	0.884 ± 0.046	0.861 ± 0.058
UniProt P50995 and related entries	0.929 ± 0.08	0.876 ± 0.092	0.957 ± 0.091	0.896 ± 0.12	0.914 ± 0.098	0.893 ± 0.1	0.89 ± 0.087	0.9 ± 0.097
UniProt P62857	0.827 ± 0.046	0.7927 ± 0.0065	0.972 ± 0.1	0.93 ± 0.1	0.806 ± 0.15	0.746 ± 0.14	0.61 ± 0.093	0.735 ± 0.17
UniProt P62072	0.991 ± 0.067	0.963 ± 0.1	1.06 ± 0.086	1.03 ± 0.15	1.01 ± 0.071	1.04 ± 0.16	1.09 ± 0.076	1.16 ± 0.037
